Measured values reported in PMC11237551, “MRS2 missense variation at Asp216 abrogates inhibitory Mg^2+ binding, potentiating cell migration and apoptosis resistance” (Protein Science : A Publication of the Protein Society, 2024).
No constants are given. Whether binding was seen depends on the method and setting. Some results given as binding are weak or reduced against the parent protein; the word gives no strength. Blank lines part the entries; values can stand above or below the binder they belong to.

Experiments:
[1] = molecular target: human MRS2 amino terminal domain, residues 58-333 (MRS2_(58‐333)), wild type (human) (UniProt Q9HD23); test: dynamic light scattering; higher order oligomers seen as larger hydrodynamic radii; 20 mM Tris pH 8, 150 mM NaCl, 1 mM DTT, 20°C, no Mg2+ (1.25 mg/mL in the methods, 2.5 mg/mL in the legend); both purified
[2] = molecular target: human MRS2 amino terminal domain, residues 58-333, E261Q mutant (MRS2_(58‐333)‐E261Q) (human) (UniProt Q9HD23); test: condition: only with 5 mM MgCl2 (2.5 mg/mL injected); SEC-MALS; Superdex 200 Increase 10/300 GL, 100 uL injected at 2.5 mg/mL, 20 mM Tris pH 8, 150 mM NaCl, 1 mM DTT, ~10°C, running buffer and sample with 5 mM MgCl2; both purified
[3] = molecular target: human MRS2 amino terminal domain, residues 58-333, D216Q mutant (MRS2_(58‐333)‐D216Q) (human) (UniProt Q9HD23); test: dynamic light scattering; higher order oligomers seen as larger hydrodynamic radii; 20 mM Tris pH 8, 150 mM NaCl, 1 mM DTT, 20°C, no Mg2+ (1.25 mg/mL in the methods, 2.5 mg/mL in the legend); both purified
[4] = molecular target: human MRS2 amino terminal domain, residues 58-333, D216Q mutant (MRS2_(58‐333)‐D216Q) (human) (UniProt Q9HD23); test: dynamic light scattering; higher order oligomers seen as larger hydrodynamic radii; 20 mM Tris pH 8, 150 mM NaCl, 1 mM DTT, 20°C, with 5 mM MgCl2 (1.25 mg/mL in the methods, 2.5 mg/mL in the legend); both purified

binding [1]: binds
B1: human MRS2 amino terminal domain, residues 58-333 (MRS2_(58‐333)), wild type (domain or fragment, UniProt Q9HD23-1 58-333, looked up)
chain: DRLRVAGEVHRFRTSDVSQATLASVAPVFTVTKFDKQGNVTSFERKKTELYQELGLQARDLRFQHVMSITVRNNRIIMRMEYLKAVITPECLLILDYRNLNLEQWLFRELPSQLSGEGQLVTYPLPFEFRAIEALLQYWINTLQGKLSILQPLILETLDALVDPKHSSVDRSKLHILLQNGKSLSELETDIKIFKESILEILDEEELLEELCVSKWSDPQVFEKSSAGIDHAEEMELLLENYYRLADDLSNAARELRVLIDDSQSIIFINLDSHRN
notes: Mitochondrial RNA splicing protein 2 (MRS2), human, amino terminal (matrix) domain, residues 58-333 of NCBI NP_065713.1 (pre-protein numbering); theoretical monomer 32.5 kDa including cloning artifacts; Surmise: E. coli, His tag removed by protease; also called MRS2‐NTD; WT; source: recombinantly expressed and purified, as described previously (Uthayabalan et al., 2023)

binding [2]: no binding
B2: human MRS2 amino terminal domain, residues 58-333, E261Q mutant (MRS2_(58‐333)‐E261Q) (domain or fragment, UniProt Q9HD23-1 58-333, looked up)
chain: DRLRVAGEVHRFRTSDVSQATLASVAPVFTVTKFDKQGNVTSFERKKTELYQELGLQARDLRFQHVMSITVRNNRIIMRMEYLKAVITPECLLILDYRNLNLEQWLFRELPSQLSGEGQLVTYPLPFEFRAIEALLQYWINTLQGKLSILQPLILETLDALVDPKHSSVDRSKLHILLQNGKSLSELETDIKIFKESILEILDQEELLEELCVSKWSDPQVFEKSSAGIDHAEEMELLLENYYRLADDLSNAARELRVLIDDSQSIIFINLDSHRN
notes: construct details in Uthayabalan et al., 2023; also called MRS2‐NTD‐E261Q; source: recombinantly expressed and purified as described for MRS2_(58‐333) (Uthayabalan et al., 2023)

binding [3]: binds
binding [4]: binds
B3: human MRS2 amino terminal domain, residues 58-333, D216Q mutant (MRS2_(58‐333)‐D216Q) (domain or fragment, UniProt Q9HD23-1 58-333, looked up)
chain: DRLRVAGEVHRFRTSDVSQATLASVAPVFTVTKFDKQGNVTSFERKKTELYQELGLQARDLRFQHVMSITVRNNRIIMRMEYLKAVITPECLLILDYRNLNLEQWLFRELPSQLSGEGQLVTYPLPFEFRAIEALLQYWINTLQGKLSILQPLILETLQALVDPKHSSVDRSKLHILLQNGKSLSELETDIKIFKESILEILDEEELLEELCVSKWSDPQVFEKSSAGIDHAEEMELLLENYYRLADDLSNAARELRVLIDDSQSIIFINLDSHRN
notes: theoretical monomer 32,517 Da; construct details in Uthayabalan et al., 2023; also called MRS2‐NTD‐D216Q; source: recombinantly expressed and purified as described for MRS2_(58‐333) (Uthayabalan et al., 2023)
